# According to publication PMC4140647:
# Results are given in words; binding and its absence hold for the method and conditions named. In cells and extracts the contact can be indirect. Here binding means that the protein was enriched with, or labelled near, the bait; the list need not be complete. Tags and fused reporters may be left off the sequences shown.
# T1: AtMTR4-GFP (Arabidopsis thaliana) (UniProt Q9XIF2)
# T1 sequence: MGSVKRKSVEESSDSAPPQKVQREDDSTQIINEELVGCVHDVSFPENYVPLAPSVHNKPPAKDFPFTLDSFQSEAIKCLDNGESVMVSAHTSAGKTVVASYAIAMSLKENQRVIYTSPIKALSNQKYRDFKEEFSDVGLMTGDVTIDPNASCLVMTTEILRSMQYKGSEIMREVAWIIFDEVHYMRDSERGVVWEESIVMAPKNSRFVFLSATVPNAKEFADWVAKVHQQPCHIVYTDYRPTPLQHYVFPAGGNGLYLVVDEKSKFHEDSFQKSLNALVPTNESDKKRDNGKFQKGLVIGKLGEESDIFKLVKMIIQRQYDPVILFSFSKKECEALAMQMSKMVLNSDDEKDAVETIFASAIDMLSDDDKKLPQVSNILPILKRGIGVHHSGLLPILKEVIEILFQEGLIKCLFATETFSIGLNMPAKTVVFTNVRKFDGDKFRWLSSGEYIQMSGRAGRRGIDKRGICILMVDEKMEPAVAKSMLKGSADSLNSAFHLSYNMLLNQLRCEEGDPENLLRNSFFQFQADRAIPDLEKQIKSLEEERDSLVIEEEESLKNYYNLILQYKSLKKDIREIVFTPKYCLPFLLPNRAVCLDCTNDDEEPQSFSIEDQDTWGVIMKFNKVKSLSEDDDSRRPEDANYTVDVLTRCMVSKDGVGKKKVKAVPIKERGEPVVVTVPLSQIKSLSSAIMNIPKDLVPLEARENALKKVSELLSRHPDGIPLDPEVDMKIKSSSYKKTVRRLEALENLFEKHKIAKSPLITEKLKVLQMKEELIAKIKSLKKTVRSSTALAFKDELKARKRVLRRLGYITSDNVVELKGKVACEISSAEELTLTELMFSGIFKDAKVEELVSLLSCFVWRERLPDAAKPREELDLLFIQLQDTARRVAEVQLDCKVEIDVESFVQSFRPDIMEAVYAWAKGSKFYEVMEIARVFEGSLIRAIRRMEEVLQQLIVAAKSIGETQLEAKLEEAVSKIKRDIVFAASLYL
# T2: HEN2-GFP (Arabidopsis thaliana) (UniProt Q9ZVW2)
# T2 sequence: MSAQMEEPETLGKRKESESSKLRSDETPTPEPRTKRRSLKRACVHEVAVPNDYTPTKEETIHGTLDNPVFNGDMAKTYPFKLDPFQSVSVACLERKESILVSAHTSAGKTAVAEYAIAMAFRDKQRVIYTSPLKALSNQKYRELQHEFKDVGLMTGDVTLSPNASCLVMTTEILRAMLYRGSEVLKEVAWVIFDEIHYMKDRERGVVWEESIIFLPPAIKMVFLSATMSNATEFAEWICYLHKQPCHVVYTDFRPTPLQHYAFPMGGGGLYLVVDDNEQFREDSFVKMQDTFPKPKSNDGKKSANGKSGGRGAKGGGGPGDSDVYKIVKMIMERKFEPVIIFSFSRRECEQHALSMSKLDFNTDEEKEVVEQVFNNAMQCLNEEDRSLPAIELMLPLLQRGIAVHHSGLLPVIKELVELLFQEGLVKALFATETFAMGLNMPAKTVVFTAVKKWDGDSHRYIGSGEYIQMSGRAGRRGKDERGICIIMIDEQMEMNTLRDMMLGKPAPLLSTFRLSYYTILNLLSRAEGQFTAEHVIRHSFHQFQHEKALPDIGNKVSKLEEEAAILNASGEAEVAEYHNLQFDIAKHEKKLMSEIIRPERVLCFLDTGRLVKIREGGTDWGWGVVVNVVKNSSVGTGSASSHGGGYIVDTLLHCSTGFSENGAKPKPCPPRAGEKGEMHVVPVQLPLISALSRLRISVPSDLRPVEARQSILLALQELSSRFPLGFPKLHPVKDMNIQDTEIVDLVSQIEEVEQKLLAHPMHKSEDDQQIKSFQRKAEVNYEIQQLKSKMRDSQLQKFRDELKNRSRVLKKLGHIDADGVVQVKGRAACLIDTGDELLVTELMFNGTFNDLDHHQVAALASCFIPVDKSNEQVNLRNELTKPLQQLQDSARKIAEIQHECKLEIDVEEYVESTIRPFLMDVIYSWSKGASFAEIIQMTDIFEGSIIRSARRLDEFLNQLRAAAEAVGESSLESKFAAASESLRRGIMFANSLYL
# B1: unknown protein, DUF1726 (AT1G10490) (protein, UniProt Q9XIK4 1-1028)
# chain: MRKKVDERIRTLIENGVKLRHRSMFVIIGDKARDQIVNLHHILSKSVVKSNPSVLWCYKNRLDISSHNKKRAKQLKKMKERGQLDPEKLDAFSLFLDVVDVTHCLYKDSERILGNTFGICILQDFEALTPNLLARTIETVEGGGLVVLLLQSLASLTSLCTMVMDVHDRFRTESHSEASGRFNERFLLSLASCKACVVMDDELNLLPLSSHIKSITKVPTKEDSEALSEAERDLKSLKDALNDDFPVGPLINKCCTLDQGKAVVTFFDAILDKTLRSIVALIASRGRGKSAALGLAVAGAVAAGYSNIYVTAPSPDNLKTVFEFVCKGFDALEYKEHLEYDVVRSVNPEFNKAIVRINIFKQHRQTIQYIQPHEHEKLSQVELLVIDEAAAIPLPVVKSLLGPYLVFLSSTVSGYEGTGRSLSLKLLQQLEEQSRAPVTGVEGSLSGCLFKKIELSESIRYASGDPIESWLNGLLCLDVANCLPNPACHPLPSQCDLYYVNRDTLFSYHKDSELFLQRMMALCVSSHYKNSPNDLQLLSDAPAHHLFVLLGPVDESKNQLPDILCVIQVCLEGQISRKSAEKSLREGHSPHGDQIPWKFCEQFRDVVFPKLSGARIVRIAVHPNAMKMGYGSAAVELLTRYFEGQLASISEGDDELEVEPSPVRVTEAAAKVSLLEEQIKPRANLPPLLVPLRDRRPERLHYIGVSFGLTLDLFRFWRKHKFAPFYISQIPSAVTGEHTCMLLKPLTLSNDEFEVDESDELGFFAPFYKDFRIRFSKLLSDKFKKMDYKLAMSVLNPKINFPEVDLTGNSPDGFLKKLDGVLSPYDMERFRAYTANLVDFNLVYDICKTLAHHYFQEKLPVSLSYVQASVLLCLGLQESDFSSIERQMQLERGQIYSLLLKVGKKLYKYLNGIATKELESTLPRLKDRVLEPHKVSVDEDLREGAKEVEEQMRARIEELLDPELLDQFAIGDKEAEALQKSKISSSGLISIESTKTDNKKEKPSGFDKSAKKRGNDKHSSTSNKKRRA
# B2: SLOW WALKER1 (protein, UniProt O82266 1-530)
# chain: MEEELRVRLNDHQVSKVFPVKPKSTAKPVSESETPESRYWSSFKNHSTPNLVSSVAALAFSPVHPHSLAVAHSATVSLFSSQSLSSSRRFSFRDVVSSVCFRSDGALFAACDLSGVVQVFDIKERMALRTLRSHSAPARFVKYPVQDKLHLVSGGDDGVVKYWDVAGATVISDLLGHKDYVRCGDCSPVNDSMLVTGSYDHTVKVWDARVHTSNWIAEINHGLPVEDVVYLPSGGLIATAGGNSVKVWDLIGGGKMVCSMESHNKTVTSLRVARMESAESRLVSVALDGYMKVFDYGRAKVTYSMRFPAPLMSLGLSPDGSTRVIGGSNGMVFAGKKKVRDVVGGQKKSLNLWSLISDVDESRRRALRPTYFRYFQRGQSEKPSKDDYLVKEKKGLKLTRHDKLLKKFRHKEALVSVLEEKKPANVVAVMEELVARRKLMKCVSNMEEGELGMLLGFLQRYCTVQRYSGLLMGLTKKVLETRAEDIKGKNEFKGLLRNLKREVNQEIRIQQSLLEIQGVIAPLMRIAGRS
# B3: … NUCLEAR PROTEIN 1 (protein, UniProt Q8RWS4 1-444)
# chain: MAKKRDRIVNTQPFISDDASVASSRKRSKVPKTHQKQEKLIEAGMSEKIMKQALAQQKEVADEENAERNPSSAAFAVAGAATAGEEQKILEEEEDDIDDFDGTFENQSQFDKQEEINEDDEKLFESFLNKNAPPQRTLTDIIIKKLKDKDADLAEEERPDPKMDPAITKLYKGVGKFMSEYTVGKLPKAFKLVTSMEHWEDVLYLTEPEKWSPNALYQATRIFASNLKDRQVQRFYNYVLLPRVREDIRKHKKLHFALYQALKKSLYKPSAFNQGILFPLCKSGTCNLREAVIIGSILEKCSIPMLHSCVALNRLAEMDYCGTTSYFIKVLLEKKYCMPYRVLDALVAHFMRFVDDIRVMPVIWHQSLLTFVQRYKYEILKEDKEHLQTLLQRQKHHLVTPEILRELKDSRNRGEKEDPMVDNFAPVPAKEDRFDIPEVPMEED
# B4: FK506 BINDING PROTEIN 53 (protein, UniProt Q93ZG9 1-477)
# chain: MGFWGLEVKPGKPQAYNPKNEQGKIHVTQATLGTGLSKEKSVIQCSIGDKAPIALCSLLPNKIECCPLNLEFDDDDEPVEFTVTGDRSIHLSGFLEYYQDDEDDYEHDEDDSDGIDVGESEEDDSCEYDSEEDEQLDEFEDFLDSNLERYRNAAAPKSGVIIEEIEDEEKPAKDNKAKQTKKKSQASEGENAKKQIVAIEGAHVPVLESEDEDEDGLPIPKGKSSEVENASGEKMVVDNDEQGSNKKRKAKAAEQDDGQESANKSKKKKNQKEKKKGENVLNEEAGQVQTGNVLKKQDISQISSNTKAQDGTANNAMSESSKTPDKSAEKKTKNKKKKKPSDEAAEISGTVEKQTPADSKSSQVRTYPNGLIVEELSMGKPNGKRADPGKTVSVRYIGKLQKNGKIFDSNIGKSPFKFRLGIGSVIKGWDVGVNGMRVGDKRKLTIPPSMGYGVKGAGGQIPPNSWLTFDVELINVQ
# B5: NUCLEOLAR COMPLEX ASSOCIATED 4 (protein, UniProt F4IMH3 1-577)
# chain: MASILSKKQKKNEKYTLKELKSLGHDLLTSRSHINNLPLLLTFVSPESPPQFVVESLLSLQSFFTPLLSQLPPTSSSPSSTKTEDPEVVFKAWLRSKFDEFVKLLLDVLVSQQSEDSLRGIVLGTLMEFVKLLNAGRFHSSIYHRLLDAIIHSEVDIEIFLDILTSKYFKYIDVRYFTYISMEKFVKTLEASVSADRTVIENNEAESDSKESLELSVRKIYQVLSQIPPPEKQAEKSQHEMWSGSDESISEKPTDKKKKTEKGDSTLLSPATISKRMKLKFTKAWISFLRLPLPIDVYKEVLASIHLTVIPHLSNPTMLCDFLTKSYDIGGVVSVMALSSLFILMTQHGLEYPFFYEKLYALLVPSVFVAKHRAKFLQLLDACLKSSMLPAYLAASFTKKLSRLSLSIPPAGSLVITALIYNLLRRNPTINHLVQEIVENADEANTEAGEHNESQPKTIKKRKLGIDYFNNQESDPKKSGALKSSLWEIDTLRHHYCPPVSRFISSLETNLTIRSKTTEMKIEDFCSGSYATIFGDEIRRRVKQVPLAFYKTVPTSLFADSDFPGWTFTIPQEEGTC
# B6: CBP80 (protein, UniProt Q9SIU2 1-848)
# chain: MSNWKTLLLRIGEKGPEYGTSSDYKDHIETCFGVIRREIERSGDQVLPFLLQCAEQLPHKIPLYGTLIGLLNLENEDFVQKLVESVHANFQVALDSGNCNSIRILLRFMTSLLCSKVIQPASLIVVFETLLSSAATTVDEEKGNPSWQPQADFYVICILSSLPWGGSELAEQVPDEIERVLVGIQAYLSIRKNSSTSGLNFFHNGEFESSLAEKDFVEDLLDRIQSLASNGWKLESVPRPHLSFEAQLVAGKFHELRPIKCMEQPSPPSDHSRAYSGKQKHDALTRYPQRIRRLNIFPANKMEDVQPIDRFVVEEYLLDVLFYLNGCRKECASYMANLPVTFRYEYLMAETLFSQILLLPQPPFKTLYYTLVIMDLCKALPGAFPAVVAGAVRALFEKISDLDMESRTRLILWFSHHLSNFQFIWPWEEWAFVLDLPKWAPKRVFVQEILQREVRLSYWDKIKQSIENATALEELLPPKAGPNFMYSLEEGKEKTEEQQLSAELSRKVKEKQTARDMIVWIEETIYPVHGFEVTLTIVVQTLLDIGSKSFTHLVTVLERYGQVFSKLCPDNDKQVMLLSQVSTYWKNNVQMTAVAIDRMMGYRLVSNQAIVRWVFSPENVDQFHVSDQPWEILGNALNKTYNRISDLRKDISNITKNVLVAEKASANARVELEAAESKLSLVEGEPVLGENPAKMKRLKSTVEKTGEAELSLRESLEAKEALLNRALSETEVLLLLLFQSFLGVLKERLPDPTKVRSVQDLKSIGAEDDKPSAMDVDSENGNPKKSCEVGEREQWCLSTLGYLTAFTRQYASEIWPHMEKLESEVFSGEDVHPLFLQAISSALQFPLH
# Key:
# [1] = target: T1, AtMTR4-GFP (Arabidopsis thaliana); assay: affinity purification with mass spectrometry; AtMTR4-GFP (own promoter, mtr4 background) extracted from flowers, held on anti-GFP magnetic microparticles (MACS), SDS omitted from washing buffers; LC-MS/MS; triplicates crossed, proteins of mock IPs excluded
# [2] = target: T2, HEN2-GFP (Arabidopsis thaliana); assay: affinity purification with mass spectrometry; HEN2-GFP (hen2 background) extracted from flowers, held on anti-GFP magnetic microparticles (MACS), 50 mM NaCl; LC-MS/MS; duplicates crossed, proteins of mock IPs excluded
Binder,binding [1],binding [2]
B1,binds,–
B2,binds,–
B3,binds,–
B4,binds,–
B5,binds,–
B6,–,binds
